Reference: patent US20160318928A1, “TRICYCLIC COMPOUNDS AS ANTICANCER AGENTS” (BRISTOL-MYERS SQUIBB COMPANY, priority 2013, published 2016)
At least one read-out could not be matched to a standard name with certainty.

Tested on: JJN3R multiple myeloma cell line
Assay: Human tumor xenograft model in mice, JJN3R
Type: in vivo
Conditions: QDx7
Description: Human Tumor Xenograft Models in Mice
All rodents were obtained from Jackson Laboratory. (Bar Harbor, Me.), and maintained in an ammonia-free environment in a defined and pathogen-free colony. All mice were quarantined approximately 1 week prior to their use for tumor propagation and drug efficacy testing. Mice were fed food and water ad libitum. The animal care program of Bristol-Myers Squibb Pharmaceutical Research Institute is fully accredited by the American Association for Accreditation of Laboratory Animal Care (AAALAC). All experiments were performed in accordance with Bristol-Myers Squibb (BMS) animal test methods and guidelines.
Tumor xenografts were grown and maintained subcutaneously (SC) in NSG (NOD scid IL2 receptor gamma chain knockout) mice (Jackson Lab). Tumors were propagated as subcutaneous transplants using tumor fragments obtained from donor mice.
Preclinical Chemotherapy Trials
The required numbers of animals needed to detect a meaningful response were pooled at the start of the experiment and each was given bilateral subcutaneous implants of two tumor fragments (˜20 mg) with a 13-gauge trocar. Tumors were allowed to grow to the pre-determined size window (tumors outside the range were excluded) and animals were evenly distributed to various treatment and control groups. There were typically 6-8 mice per treatment and control groups, consisting of 10-12 tumors. Treatment of each animal was based on individual body weight. Treated animals were checked daily for treatment related toxicity/mortality. […]
Tumor response was determined by measurement of tumors with a caliper twice a week, until the tumors reached a predetermined “target” size of 0.5 gm or 1 gm depending on the tumor type. […]
Tumor response criteria are expressed in terms of tumor growth inhibition (% TGI). […] For this purpose, the tumor weight of a group is expressed as medium tumor weight (MTW).
Tumor growth inhibition is calculated as follows: […]
Tumor response was also expressed in terms of tumor growth delay and expressed as log cell kill (LCK value), defined as the difference in time (days) required for the treated tumors (T) to reach a predetermined target size compared to those of the control group (C).
Whenever possible, antitumor activity was determined at a range of dose levels up to the maximum tolerated dose (MTD) which is defined as the dose level immediately […] which excessive toxicity (i.e. more than one death) occurred. When death occurred, the day of death was recorded. […]
For administration of BET inhibitors to rodents, compounds were dissolved in […]/10% TPGS/10% Ethanol. BET inhibitors were typically administered orally on a schedule of QDx7 or QDx10 (5 day-on-2 day-off), although other schedules had also been evaluated and shown to be efficacious

Compound	LCK (1 mg/kg)	LCK (4 mg/kg)
[2H]C([2H])([2H])c1nnn(C)c1-c1cnc2c3ccc(C(C)(C)O)cc3n(C(c3ccc(F)cc3)C3CCOCC3)c2c1 (stereo not shown) [Example 267]	0	0.6
Cc1nnn(C)c1-c1cnc2c3ccc(C(C)(O)C4CC4)c(F)c3n([C@H](c3ccccc3F)C3CCOCC3)c2c1 (single isomer, unassigned) [Example 436]	0.6	0.9
